Experimental data reported in doi:10.1101/2024.12.25.630315 (bioRxiv, 2024).

Experiment: general procedure: Fmoc solid-phase peptide synthesis; Rink Amide resin; Oxyma/DIC
Settings: whole synthesis, scale 0.1 mmol

## NH2-PEG12-(Cys-Pro-Nal-Asp-Cys-Met-hArg-dAsp-Trp-Ser-Thr-Pro-Hyp-Trp-Cys)-TATA
  isolated mass: 30 mg
  isolated yield: 25% yield
